Assay results

The results are deposited in PubChem (AID1080; Emory University Molecular Libraries Screening Center, 2008).

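A cell line overexpressing EP4 prostanoid receptors, stimulated with a low (about EC15) PGE2 dose; cAMP read by HTRF FRET after a short room-temperature incubation. Compounds were tested at 20 µM final. A low (about EC15) PGE2 dose was present. Percent cAMP induction as a fraction of the 1 µM PGE2 response, averaged over three replicates; a higher value means more cAMP.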

Values are in %. Common to all entries: measured here: EP4 receptor counter-screen. Part of the compounds only, not a random draw; the main read-out is not listed here.

- Cc1cccc(Oc2sc(C(=O)c3ccccc3)c(N)c2C#N)c1 [percent of 1 uM PGE2 response; plus low (about EC15) PGE2 agonist] | cAMP induction 6.18%
- Cc1cc2ccccn2c1C(=O)c1ccc(Cl)cc1 [percent of 1 uM PGE2 response; plus low (about EC15) PGE2 agonist] | cAMP induction -11.97%
- COc1cnc(N(C)C)nc1Sc1cccc(Cl)c1 [percent of 1 uM PGE2 response; plus low (about EC15) PGE2 agonist] | cAMP induction 7.937%
- COc1ccc(N2CCN(c3nc4c(c(=O)n(C)c(=O)n4C)n3Cc3ccccc3)CC2)cc1 [percent of 1 uM PGE2 response; plus low (about EC15) PGE2 agonist] | cAMP induction -8.273%
- CCOP(=O)(c1ccccc1)c1nc(-c2ccccc2Cl)oc1N1CCCCC1 (stereo unspecified) [percent of 1 uM PGE2 response; plus low (about EC15) PGE2 agonist] | cAMP induction -5.783%
- O=C(O)CCN1C(=O)/C(=C/c2cn(-c3ccccc3)nc2-c2cccs2)SC1=S [percent of 1 uM PGE2 response; plus low (about EC15) PGE2 agonist] | cAMP induction -2.727%
- Nc1ccccc1CCCC(=O)O [percent of 1 uM PGE2 response; plus low (about EC15) PGE2 agonist] | cAMP induction 5.32%
- C/C(CCC(C)C)=N\NC(=S)NCc1ccccc1 [percent of 1 uM PGE2 response; plus low (about EC15) PGE2 agonist] | cAMP induction -4.643%
- O=C1C2C3c4ccccc4C(c4ccccc43)C2c2nc3ccccc3n21 (stereo unspecified) [percent of 1 uM PGE2 response; plus low (about EC15) PGE2 agonist] | cAMP induction -2.297%
- COc1c(Cl)cc(Cl)cc1C(=O)n1nc(C)cc1C [percent of 1 uM PGE2 response; plus low (about EC15) PGE2 agonist] | cAMP induction 7.227%
- Cc1nc(N2N=C(c3ccc(Cl)cc3)CC2c2ccco2)sc1C(=O)N(C)C (stereo unspecified) [percent of 1 uM PGE2 response; plus low (about EC15) PGE2 agonist] | cAMP induction -14.66%
- CC1CCN(c2nc3c(c(=O)[nH]c(=O)n3C)n2CC(C)CSc2nnnn2-c2ccccc2)CC1 (stereo unspecified) [percent of 1 uM PGE2 response; plus low (about EC15) PGE2 agonist] | cAMP induction -2.983%
- CCC(=O)N(CC)c1nc(-c2cc(OC)ccc2OC)cs1 [percent of 1 uM PGE2 response; plus low (about EC15) PGE2 agonist] | cAMP induction -0.4267%
- CC(C)Oc1nc(-c2ccccc2O)nc2ccccc12 [percent of 1 uM PGE2 response; plus low (about EC15) PGE2 agonist] | cAMP induction 5.443%
- CSc1ncc2c(n1)-c1cc(C)ccc1SC2 [percent of 1 uM PGE2 response; plus low (about EC15) PGE2 agonist] | cAMP induction -4.267%
- CC(=O)c1cc(C#N)c(SCc2ccccc2)nc1C [percent of 1 uM PGE2 response; plus low (about EC15) PGE2 agonist] | cAMP induction 6.96%
- Fc1ccc(C(c2ccc(F)cc2)N2CCN(C/C=C/c3ccccc3)CC2)cc1 [percent of 1 uM PGE2 response; plus low (about EC15) PGE2 agonist] | cAMP induction -4.967%
- CCN(CC)c1nc(C#N)nc(N(CC)CC)n1 [percent of 1 uM PGE2 response; plus low (about EC15) PGE2 agonist] | cAMP induction -11.23%

Once more, the final 2:

- Fc1ccc(C(c2ccc(F)cc2)N2CCN(C/C=C/c3ccccc3)CC2)cc1 [percent of 1 uM PGE2 response; plus low (about EC15) PGE2 agonist] | cAMP induction -4.967%
- CCN(CC)c1nc(C#N)nc(N(CC)CC)n1 [percent of 1 uM PGE2 response; plus low (about EC15) PGE2 agonist] | cAMP induction -11.23%